At least one compound was matched to its structure with a doubt left.
Tested on: HSP-90 (heat shock protein 90)
Test: Determination of affinity for HSP-90 (purine affinity column elution)
Assay type: binding
Design: key: +++: very high; ++: high; +: moderate
Settings: elution from purine affinity column
Experimental: Affinity of test compounds for HSP-90 was determined as follows: Protein mixtures obtained from a variety of organ tissues (for example: spleen, liver and lung) were reversibly bound to a purine affinity column to capture purine-binding proteins, especially HSP-90. The purine affinity column was washed several times, and then eluted with 20 μM, 100 μM, and 500 μM of test compound. Compounds of Formula I elute HP-90 in a dose-dependent manner vs. a control elution using dimethylsulfoxide. The elution profile of Formula I compounds was determined by 1-dimensional SDS polyacrylamide gel electrophoresis. Gels were stained with a fluorescent stain such as sypro ruby (a highly sensitive fluorescent protein stain that can readily detect less than 1 fmol of total protein, i.e., less than 0.04 ng for a 40 kDa protein) or silver nitrate. The gels were imaged using a standard flat bed gel imager and the amount of protein estimated by densitometry. The percent of HSP-90 protein eluted from the column at each concentration was determined and IC50 values were calculated from these estimates.

For `CC1(C)CC(=O)c2c(C(F)(F)F)nn(-c3ccc(C(N)=O)c(NCCSc4ncccn4)c3)c2C1` [Example 124, 4-(6,6-dimethyl-4-oxo-3-(trifluoromethyl)-4,5,6,7-tetrahydro-1H-indazol-1-yl)-2-(2-(pyrimidin-2-ylthio)ethylamino)benzamide], the “relative binding affinity to HSP-90” value was “+++”.

— patent publication US20080269193A1, “Tetrahydroindole and Tetrahydroindazole Derivatives” (priority 2007, published 2008)
